According to paper PMC12254245:
Results are given in words; binding and its absence hold for the method and conditions named. Tags and fused reporters may be left off the sequences shown.

Target: Bradyzoite Serological Marker (BSM), recombinant, C-terminal histidine tag (Toxoplasma gondii) (UniProt S8F6A1)
Assay: SEC-MALS; S200 Increase 10/300 GL column; 50 uL injected of protein at a minimum of 4 mg/mL; flow 0.5 mL/min; both purified

B1: Bradyzoite Serological Marker (BSM), recombinant, C-terminal histidine tag (protein, UniProt S8F6A1 1-763)
chain: MAAVVTGSDMLLGFELGSQMSVVASGTRDGADRAVNKGGLDKMVARRFIPSSIAYAGKVRLFGEEAEARVNAEPNDTIMELPLWIPVHTVEQAKALETRLAFCPSVQVGLLSDGELLFHVDFNNQQLKIPLPVAVGAFVGRLHTAGLHLSGACSTEQNMSGIDLIRHMHQHRHLPHIGVLVVPSSITEKDLMILTAAQGVEKGPSIMLSRISALINWWCCEKLPAEYESLIRLQSATGASVKEKGVVHVALVDVGFSEISVAVIELRTASTEQDPLVVRQPQKQVSVKVLGSATAGDIGVLDAVNELAKHLRHHIKERFHEEIRTKTARYWRMSKACMKAIRALCDVNQAAIDLKFILKNSDVRYDITRKHFDKLCAPLQAKLRAFLEETFSKAGVAGTNVVAADVLNSLARSAWIHSTIAEAVHCEVKAGKAAKVRWVEDGGAGAALGAVYWAADKKYVDNLVDRNPPYRTDKLLWMTAMETDIQKVEQGELERRYLLAHFESYAFEIQQAAMTVKEGLVRNAEQLKKEIKDAETALGALHQAPLEEVKHAYENFRSYLMNSEPRLFEAIENERATRIGQAKGIDPRRTMDIVVSQLGQESNAKLPNAVLLKRAKRDTEEASQLLTDGQTDLAVYLANQSLGYLSNMDAKTASDADKTAAIELQLHNYLQLAKAQTTEAVEDRAIDYRSTLLTQALDNCNKALAIDSKNADALFQRSAAYMSMNDFSRAKADVDAGLAIVPGSETGKALSAEITERQHSHTA
binding: no binding (tested: injected at a minimum of 4 mg.mL^-1)
